# Laboratory results from article PMC7560607, “Synapse type-specific proteomic dissection identifies IgSF8 as a hippocampal CA3 microcircuit organizer” (Nature Communications, 2020).
# No constants are given. Whether binding was seen depends on the method and setting. Binding seen in cells or lysates may run through a third protein. A yes stands for co-enrichment or nearness to the bait. Other partners may have been found. Sequences can lack the tags named with a protein.
# T1: IgSF8-ecto-Fc, purified (not stated (human or mouse sequence cloned)) (UniProt Q8R366)
# T1 sequence: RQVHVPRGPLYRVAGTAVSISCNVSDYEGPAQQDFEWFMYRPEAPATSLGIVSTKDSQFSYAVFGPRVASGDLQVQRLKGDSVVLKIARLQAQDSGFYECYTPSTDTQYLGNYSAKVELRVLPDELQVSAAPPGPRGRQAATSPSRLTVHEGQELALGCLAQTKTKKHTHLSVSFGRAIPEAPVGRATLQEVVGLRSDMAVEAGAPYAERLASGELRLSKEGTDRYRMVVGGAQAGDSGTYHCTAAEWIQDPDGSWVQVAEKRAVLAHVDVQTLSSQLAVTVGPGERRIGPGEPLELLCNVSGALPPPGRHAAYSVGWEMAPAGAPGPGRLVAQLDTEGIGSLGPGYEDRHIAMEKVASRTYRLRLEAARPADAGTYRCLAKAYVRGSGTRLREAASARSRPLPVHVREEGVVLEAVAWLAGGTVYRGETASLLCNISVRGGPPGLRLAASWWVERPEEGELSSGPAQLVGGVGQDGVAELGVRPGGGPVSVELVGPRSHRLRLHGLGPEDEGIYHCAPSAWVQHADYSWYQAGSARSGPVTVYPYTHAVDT
# B1: Tenascin-R, endogenous in rat brain synaptosome extract (protein, UniProt Q05546 32-1356)
# chain: RLEVTTERVQRQTVEEEGGASSYNTSSKEQPMVFNHVYNINVPLESLCSSGLEASAEQDVSAEDDTLAEYTGQTSDHESQVTFTHKINLPKKACPCASSAQVLQELLSRIEMLEREVSVLRDQCNTNCCQESAATGQLDYVPHCSGHGNFSFESCGCICNEGWFGKNCSEPYCPLGCSSRGVCVDGQCICDSEYSGDDCSELRCPTDCSSRGLCVDGECVCEEPYTGEDCRELRCPGDCSGKGQCANGTCLCQEGYAGEDCSQRRCLNACSGRGHCQEGLCICEEGYQGPDCSAVTPPEDLRVAGISDRSIELEWDGPMAVTEYVISYQPSLGGLQLQQRVPGDWSGVTITELEPGLTYNISVYAVISNILSLPITAKVATHLSTPQGLQFKTITETTVEVQWEPFSFSFDGWEISFTPKNNEGGVIAQLPSDVTSFNQTGLKPGEEYIVNVVALKEQARGPPTSASVSTVIDGPTQILVRDVSDTVAFVEWTPPRAKVDFILLKYGLVGGEGGKTTFRLQPPLSQYSVQALRPGSRYEVSISAVRGTNESDASSTQFTTEIDAPKNLRVGSRTATSLDLEWDNSEAEAQEYKVVYSTLAGEQYHEVLVPKGIGPTTKTTLTDLVPGTEYGVGISAVMNSKQSIPATMNARTELDSPRDLMVTASSETSISLIWTKASGPIDHYRITFTPSSGISSEVTVPRDRTSYTLTDLEPGAEYIISITAERGRQQSLESTVDAFTGFRPISHLHFSHVTSSSVNITWSDPSPPADRLILNYSPRDEEEEMMEVLLDATKRHAVLMGLQPATEYIVNLVAVHGTVTSEPIVGSITTGIDPPKNITISNVTKDSLTVSWSPPVAPFDYYEYPIDHPSGRLDSSVVPNTVTEFTITRLYPASQYEISLNSVRGREESERICTLVHTAMDSPMDLIATNITPTEALLQWKAPMGEVENYVIVLTHFAMAGETILVDGVSEEFQLVDLLPRTHYTVTMYATSGPLVSGTIATNFSTLLDPPANLTASEVTRQSALISWQPPRAAIENYVLTYKSTDGSRKELIVDAEDTWIRLEGLSENTDYTVLLQAAQEATRSSLTSTIFTTGGRVFSHPQDCAQHLMNGDTLSGVYTIFLNGELSHKLQVYCDMTTDGGGWIVFQRRQNGQTDFFRKWADYRVGFGNLEDEFWLGLDNYHRITAQGRYELRVDMRDGQEAVFAYYDKFAVEDSRSLYKLRIGGYNGTAGDSLSYHQGRPFSTEDRDNDVAVTNCAMSYKGAWWYKNCHRTNLNGKYGESRHSQGINWYHWKGHEFSIPFVEMKMRPYIHRLTAGRKRRALKF
# B2: Tenascin-R, endogenous in mouse MF synaptosome extract (protein, UniProt Q8BYI9 32-1358)
# chain: RLEVTTERAQRQTVEEEGGASSYNTSSKEQPMVFNHVYNINVPLESLCSSGLEASAEQDMSAEDDTLAEYIGQTSDHESQVTFTHKINLPKKACPCASSSQVLQELLSRIEMLEREVSLLRDQCNTNCCQESAATGQLDYVPHCSGHGNFSFESCGCICNEGWFGKNCSEPYCPLGCSSRGVCVDGQCICDSEYSGDDCSELRCPTDCSSRGLCVDGECVCEEPYTGEDCRELRCPGDCSGKGQCANGTCLCQEGYAGEDCSQRRCLNACSGRGHCQEGLCICEEGYQGPDCSAVAPPEDLRVAGISDRSIELEWDGPMAVTEYVISYQPTALGGLQLQQRVPGDWSGVTIMELEPGLTYNISVYAVISNILSLPITAKVATHLSTPQGLQFKTITETTVEVQWEPFSFSFDGWEISFIPKNNEGGVIAQLPSDVTSFNQTGLKPGEEYIVNVVALKEQARSPPTSASVSTVIDGPTQILVRDVSDTVAFVEWTPPRAKVDFILLKYGLVGGEGGKTTFRLQPPLSQYSVQALRPGSRYEVSISAVRGTNESEASSTQFTTEIDAPKNLRVGSRTATSLDLEWDNSEAEAQEYKVVYSTLAGEQYHEVLVPKGIGPTTKTTLTDLVPGTEYGVGISAVMNSKQSIPATMNARTELDSPRDLMVTASSETSISLIWTKASGPIDHYRITFTPSSGISSEVTVPRDRTSYTLTDLEPGAEYIISITAERGRQQSLESTVDAFTGFRPISHLHFSHVTSSSVNITWSDPSPPADRLILNYSPRDKEEDMLEVLLDATKRHAVLMGLQPATEYIVNLVAVHGTVTSEPIVGSITTGIDPPKNITISNVTKDSLTVSWSSPVAPFDYYRVSYRPTQVGRLDSSVVPNTVTEFAITRLYPATEYEISLNSVRGREESERICTLVHTAMDSPMDLIATNITPTEALLQWKAPMGEVENYVIVLTHFAIAGETILVDGVSEEFQLVDLLPSTHYTVTMYATSGPLMSGTIATNFSTLLDPPDNLTASEVTRQSALISWQPPRAAIENYVLTYKSTDGSRKELIVDAEDTWIRLEGLSENTDYTVLLQAAQEATRSSLTSTVFTTGGRVFSHPQDCAQHLMNGDTLSGVYTIFLNGELSHKLQVYCDMTTDGGGWIVFQRRQNGQTDFFRKWADYRVGFGNLEDEFWLGLDNIHRITAQGRYELRVDMRDGQEAVFAYYDKFAVEDSRSLYKIRIGSYNGTAGDSLSYHQGRPFSTEDRDNDVAVTNCAMSYKGAWWYKNCHRTNLNGKYGESRHSQGINWYHWKGHEFSIPFVEMKMRPYIHRLTAGRKRRALKF
# How the values were obtained:
# [1] = target: T1, IgSF8-ecto-Fc, purified (not stated (human or mouse sequence cloned)); assay: affinity purification with mass spectrometry; 100 µg IgSF8-ecto-Fc prebound to Protein-A sepharose; 1% Triton X-100 extract of P21-22 rat whole brain P2 synaptosomes; overnight 4 °C; high-salt (300 mM NaCl) wash; LC-MS/MS; human Fc as control; only the target purified
# [2] = target: T1, IgSF8-ecto-Fc, purified (not stated (human or mouse sequence cloned)); assay: affinity purification with mass spectrometry; 100 µg IgSF8-ecto-Fc prebound to Protein-A sepharose; 1% Triton X-100 extract of P21 mouse P1 crude MF synaptosomes; overnight 4 °C; high-salt (300 mM NaCl) wash; LC-MS/MS; human Fc as control; only the target purified
binder,measurement,setting,value
B1,binding,[1],binds
B2,binding,[2],binds
